# The other results are listed elsewhere or left out.
# B1: GS13599A-bth-520-23-520 (Bacteroides thetaiotaomicron) (protein)
# chain: SEDTMDRINKDHDHTTSVASRFILADVITSTAFSNASGDINTYASSYIEYEVGVDNQLYYAEVRENEPSSSSTFNNSWNGIYSSLKNARIIIDQCGEGGRDHGNDVTRGMAEVMAAYNCALIADFFGDAPCSQAALVDEKGSPVYMTPKMDTQQEIYTQIISYLDDAIANLQKEDLADVTEQDFLYAGDADKWLKFAYGLKARYTMRLINRSSNKSADYEKVLDYVSKSFTSADDQAAFDIYDSNNINPFYGFYNSRAGFGASTSLGTKLLAYNDPRANRAFFTPIVDKKRSQVAANDPSLVPAPNGSPDQSTSKYGISAFVYAKTAPTLLMSYHELMFLKAEALCRLNRDAEDALKEAVVAGLLNAENSISIAIKELGSGLNTNSSEVITETSAGKYFDDVVKAKYAANPLQETMIQKYLAMWGASGEATETYNDFRRMKGLNENFITLTNPNNSSKFPLRYPYGNSDTAANPEVKAAYGNGDYVYSEPVWWAGGSR
# How the values were obtained:
# Experiment in all cases: glycan array binding signal (z-score within array); higher = stronger binding
# Conditions in all cases: glycan notation: IUPAC condensed, linker removed
# Fuc(a1-3)GlcNAc = molecular target: Fuc(a1-3)GlcNAc
# Outline: (§1)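 From the Consortium for Functional Glycomics database, 3228 arrays were curated, keeping only those whose protein sequence was available. Binding is given as a within-array Z-score averaged across arrays sharing a protein sequence and across linkers. Negative Z-scores can be read as non-binding.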
# [1] = molecular target: Fuc(a1-3)[Gal(b1-4)]Glc6S
# Outline: as §1
# [2] = molecular target: Fuc(a1-3)[Gal(b1-4)]GlcNAc
# Outline: as §1
# [3] = molecular target: Fuc(a1-3)[Gal(b1-4)]GlcNAc(b1-2)Man
# Outline: as §1
# [4] = molecular target: Fuc(a1-3)[Gal(b1-4)]GlcNAc(b1-2)Man(a1-3)[Fuc(a1-3)[Gal(b1-4)]GlcNAc(b1-2)Man(a1-6)]Man(b1-4)GlcNAc(b1-4)GlcNAc
# Outline: as §1
# [5] = molecular target: Fuc(a1-3)[Gal(b1-4)]GlcNAc(b1-2)Man(a1-3)[Fuc(a1-3)[Gal(b1-4)]GlcNAc(b1-2)Man(a1-6)]Man(b1-4)GlcNAc(b1-4)[Fuc(a1-6)]GlcNAc
# Outline: as §1
# [6] = molecular target: Fuc(a1-3)[Gal(b1-4)]GlcNAc(b1-3)Gal(b1-3)[Fuc(a1-4)]GlcNAc
# Outline: as §1
# [7] = molecular target: Fuc(a1-3)[Gal(b1-4)]GlcNAc(b1-3)Gal(b1-4)[Fuc(a1-3)]GlcNAc
# Outline: as §1
# [8] = molecular target: Fuc(a1-3)[Gal(b1-4)]GlcNAc(b1-3)Gal(b1-4)[Fuc(a1-3)]GlcNAc(b1-3)Gal(b1-4)[Fuc(a1-3)]GlcNAc
# Outline: as §1
# [9] = molecular target: Fuc(a1-3)[Gal(b1-4)]GlcNAc(b1-3)GalNAc
# Outline: as §1
# [10] = molecular target: Fuc(a1-3)[Gal(b1-4)]GlcNAc(b1-6)GalNAc
# Outline: as §1
# [11] = molecular target: Fuc(a1-3)[Gal(b1-4)]GlcNAc(b1-6)[Gal(b1-3)GlcNAc(b1-3)]Gal(b1-4)Glc
# Outline: as §1
# [12] = molecular target: Fuc(a1-3)[Gal(b1-4)]GlcNAc6S
# Outline: as §1
# [13] = molecular target: Fuc(a1-3)[Gal3S(b1-4)]Glc
# Outline: as §1
# [14] = molecular target: Fuc(a1-3)[Gal3S(b1-4)]GlcNAc
# Outline: as §1
# [15] = molecular target: Fuc(a1-3)[Gal3S(b1-4)]GlcNAc6S
# Outline: as §1
# [16] = molecular target: Fuc(a1-3)[GalNAc(b1-4)]GlcNAc
# Outline: as §1
# [17] = molecular target: Fuc(a1-3)[GalNAc(b1-4)]GlcNAc6S
# Outline: as §1
# Fuc(a1-4)GlcNAc = molecular target: Fuc(a1-4)GlcNAc
# Outline: as §1
# Fuc(b1-3)GlcNAc = molecular target: Fuc(b1-3)GlcNAc
# Outline: as §1
# Gal(a1-2)Gal = molecular target: Gal(a1-2)Gal
# Outline: as §1
# Gal(a1-3)Gal = molecular target: Gal(a1-3)Gal
# Outline: as §1
# Gal(a1-3)Gal(b1-3)GlcNAc = molecular target: Gal(a1-3)Gal(b1-3)GlcNAc
# Outline: as §1
# [18] = molecular target: Gal(a1-3)Gal(b1-3)GlcNAc(b1-2)Man
# Outline: as §1
# [19] = molecular target: Gal(a1-3)Gal(b1-3)GlcNAc(b1-2)Man(a1-3)[Gal(a1-3)Gal(b1-3)GlcNAc(b1-2)Man(a1-6)]Man(b1-4)GlcNAc(b1-4)GlcNAc
# Outline: as §1
# [20] = molecular target: Gal(a1-3)Gal(b1-3)GlcNAc(b1-3)GalNAc
# Outline: as §1
# [21] = molecular target: Gal(a1-3)Gal(b1-3)GlcNAc(b1-6)GalNAc
# Outline: as §1
# [22] = molecular target: Gal(a1-3)Gal(b1-3)[Fuc(a1-4)]GlcNAc(b1-2)Man(a1-3)[Gal(a1-3)Gal(b1-3)[Fuc(a1-4)]GlcNAc(b1-2)Man(a1-6)]Man(b1-4)GlcNAc(b1-4)GlcNAc
# Outline: as §1
# Gal(a1-3)Gal(b1-4)Glc = molecular target: Gal(a1-3)Gal(b1-4)Glc
# Outline: as §1
# Gal(a1-3)Gal(b1-4)GlcNAc = molecular target: Gal(a1-3)Gal(b1-4)GlcNAc
# Outline: as §1
# [23] = molecular target: Gal(a1-3)Gal(b1-4)GlcNAc(b1-2)Man
# Outline: as §1
# [24] = molecular target: Gal(a1-3)Gal(b1-4)GlcNAc(b1-2)Man(a1-3)[Gal(a1-3)Gal(b1-4)GlcNAc(b1-2)Man(a1-6)]Man(b1-4)GlcNAc(b1-4)GlcNAc
# Outline: as §1
# [25] = molecular target: Gal(a1-3)Gal(b1-4)GlcNAc(b1-3)GalNAc
# Outline: as §1
# [26] = molecular target: Gal(a1-3)Gal(b1-4)GlcNAc(b1-6)GalNAc
# Outline: as §1
# [27] = molecular target: Gal(a1-3)Gal(b1-4)[Fuc(a1-3)]GlcNAc
# Outline: as §1
# [28] = molecular target: Gal(a1-3)Gal(b1-4)[Fuc(a1-3)]GlcNAc(b1-2)Man(a1-3)[Gal(a1-3)Gal(b1-4)[Fuc(a1-3)]GlcNAc(b1-2)Man(a1-6)]Man(b1-4)GlcNAc(b1-4)GlcNAc
# Outline: as §1
# Gal(a1-3)GalNAc = molecular target: Gal(a1-3)GalNAc
# Outline: as §1
binder,measurement,setting,value
B1,glycan array binding signal (z-score),Fuc(a1-3)GlcNAc,0.449
same,glycan array binding signal (z-score),[1],0.474
same,glycan array binding signal (z-score),[2],-0.868
same,glycan array binding signal (z-score),[3],0.223
same,glycan array binding signal (z-score),[4],0.707
same,glycan array binding signal (z-score),[5],0.992
same,glycan array binding signal (z-score),[6],-1.03
same,glycan array binding signal (z-score),[7],0.787
same,glycan array binding signal (z-score),[8],-0.194
same,glycan array binding signal (z-score),[9],-0.74
same,glycan array binding signal (z-score),[10],-0.71
same,glycan array binding signal (z-score),[11],-0.479
same,glycan array binding signal (z-score),[12],-0.749
same,glycan array binding signal (z-score),[13],-0.952
same,glycan array binding signal (z-score),[14],0.884
same,glycan array binding signal (z-score),[15],1.29
same,glycan array binding signal (z-score),[16],1.83
same,glycan array binding signal (z-score),[17],-0.671
same,glycan array binding signal (z-score),Fuc(a1-4)GlcNAc,0.385
same,glycan array binding signal (z-score),Fuc(b1-3)GlcNAc,0.279
same,glycan array binding signal (z-score),Gal(a1-2)Gal,-0.707
same,glycan array binding signal (z-score),Gal(a1-3)Gal,-0.044
same,glycan array binding signal (z-score),Gal(a1-3)Gal(b1-3)GlcNAc,-0.349
same,glycan array binding signal (z-score),[18],0.438
same,glycan array binding signal (z-score),[19],1.47
same,glycan array binding signal (z-score),[20],-0.659
same,glycan array binding signal (z-score),[21],-0.97
same,glycan array binding signal (z-score),[22],1.41
same,glycan array binding signal (z-score),Gal(a1-3)Gal(b1-4)Glc,0.356
same,glycan array binding signal (z-score),Gal(a1-3)Gal(b1-4)GlcNAc,-0.032
same,glycan array binding signal (z-score),[23],-0.226
same,glycan array binding signal (z-score),[24],-0.388
same,glycan array binding signal (z-score),[25],-0.774
same,glycan array binding signal (z-score),[26],-0.591
same,glycan array binding signal (z-score),[27],-0.005
same,glycan array binding signal (z-score),[28],-0.089
same,glycan array binding signal (z-score),Gal(a1-3)GalNAc,-1.08

# Three entries from above, reformatted.
binder	measurement	setting	value
B1	glycan array binding signal (z-score)	[9]	-0.74
same	glycan array binding signal (z-score)	[10]	-0.71
same	glycan array binding signal (z-score)	[11]	-0.479
